Reference: patent publication US20170152290A1
These are yes or no findings as the source states them, for the method shown. Some binding calls cover weakened binding; strength is not graded here.

Chains of the proteins cited; added tags and fusions are not shown. Residues count along the entry.
UniProt P30533, residues 35-357: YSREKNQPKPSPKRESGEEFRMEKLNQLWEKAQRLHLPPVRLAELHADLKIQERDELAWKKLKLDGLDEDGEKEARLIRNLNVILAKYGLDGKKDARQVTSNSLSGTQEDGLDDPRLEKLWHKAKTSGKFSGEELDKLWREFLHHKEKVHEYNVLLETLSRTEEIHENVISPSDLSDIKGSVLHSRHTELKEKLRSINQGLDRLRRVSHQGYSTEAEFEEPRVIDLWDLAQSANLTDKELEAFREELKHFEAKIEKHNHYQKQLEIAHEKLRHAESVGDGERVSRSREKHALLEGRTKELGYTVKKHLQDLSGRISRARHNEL

How the values were obtained:
[1] = biological target: sLRP1-CIV (cluster IV of LRP1 fused to the constant region of a human IgG1) (human); experiment: SPR (Biacore X), sLRP1-CIV immobilised, maximal RU against RAP concentration
[2] = biological target: sLRP1-CIV (cluster IV of LRP1 fused to the constant region of a human IgG1) (human); experiment: SPR (Biacore X), CM5 chip, sLRP1-CIV immobilised on Fc1 and rHSA on Fc2, analyte at 100 nM
[3] = biological target: sLRP1-CIV (cluster IV of LRP1 fused to the constant region of a human IgG1) (human); experiment: SPR (Biacore X), sLRP1-CIV immobilised on CM5, analyte at 100 nM

binding [1]: binds
binding [2]: binds
binding [3]: binds
Substance: Receptor-Associated Protein (RAP) (from UniProt P30533 35-357) (ligand)
